Measurements published in PubChem BioAssay AID504467 (National Center for Advancing Translational Sciences (NCATS), 2011).
Among all 330,000 compounds or so, about 7,700 (2.3%) were called active. The inconclusive results got no clear call from the source; some entries with a clear call stand among them for comparison. Calls follow the shape of the dose curve; as a rule, active = well fitted inhibition curve with a large enough effect; inconclusive = small, poorly fitted or top-dose-only effect, or effect the other way; inactive = flat fitted curve, though single readings scatter. Potencies beside an inconclusive call are fits to weak or partial responses and may not hold up.

Test: qHTS screen for small molecules that inhibit ELG1-dependent DNA repair in human embryonic kidney (HEK293T) cells expressing luciferase-tagged ELG1; also: nearly all actives have a fitted effect of over 55% in size
Conditions: HEK293T ELG1-luciferase reporter, luminescence, 16 h, DNA damage induced by 5-fluorouridine; series mostly up to 46.1 µM
Procedure, shortened: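 In this reporter screen, reduction of luminescence relative to DMSO vehicle indicated activity. Compounds and 5-fluorouridine were added together to 2,000 cells per well, incubated for 16 hr at 37 °C, then developed with ONE-Glo.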
Potency is read from the fitted curve at half-maximal effect.

Row | Compound | Potency
1 | COC(=O)C1(C(=O)O)Cc2cc([N+](=O)[O-])ccc2N2CCCC21 (stereo not given) | inactive
2 | O=C1NC(=O)N(c2ccccc2)C(=O)/C1=C\C=C\c1ccccc1 | inconclusive: 29.1 µM [inhibitor, single point]
3 | CN(C)P(=O)(C(Cl)=C(N1CCCCC1)N1CCCCC1)N(C)C | inconclusive: 5.17 µM [activator, partial curve]
4 | C=CCn1c(O)c(C(CC)=NC2CC2)c(=O)[nH]c1=O | inconclusive: 29.1 µM [activator, partial curve, poor fit]
5 | O=C1C=C2C=C[C@H]3C[C@]2(O1)[C@@H]1CCCCN13 | inconclusive: 29.1 µM [inhibitor, single point]
6 | CCCCOCCCn1c(N)c(C(=O)OCCOC)c2nc3ccccc3nc21 | inconclusive: 29.1 µM [inhibitor, single point]
7 | Cc1ccc(OCC(=O)N2CCN(Cc3ccc4c(c3)OCO4)CC2)cc1C | inactive
8 | COc1ccc(N/N=C/c2c(O)n(-c3cccc(C)c3)c(=O)[nH]c2=O)cc1 | inconclusive: 5.8 µM [inhibitor, single point]
9 | O=c1oc2ccccc2n1CCCOc1ccccc1 | inconclusive: 16.4 µM [activator, partial curve]
10 | CC1=C[C@@H]2c3cccc4[nH]cc(c34)C[C@H]2N(C)C1 | inactive
11 | Cc1nc2ccccc2c(=O)n1-c1ccc(F)cc1 | inactive
12 | CC(C)[C@H]1C(=O)O[C@H](C(C)C)C(=O)N(C)[C@@H](C(C)C)C(=O)O[C@H](C(C)C)C(=O)N(C)[C@@H](C(C)C)C(=O)O[C@H](C(C)C)C(=O)N1C | inconclusive: 4.61 µM [inhibitor, single point]
13 | CC1=NN(Cc2c[nH]c3ccccc23)C(C)(C)C1 | inactive
14 | CC(C)n1c(=O)c(C=Nc2cccc([N+](=O)[O-])c2)c(O)n(CCc2ccccc2)c1=O | inconclusive: 20.6 µM [inhibitor, single point]
15 | O=c1[nH]c(=S)n(Cc2ccc(F)cc2)c(O)c1C=NCCCn1ccnc1 | inconclusive: 1.64 µM [inhibitor, partial curve, poor fit]
16 | Cc1ccc2c(c1)C1CN(C)CCC1N2C(=O)CCCN1C(=O)c2cccc3cccc(c23)C1=O (stereo not given) | inactive
17 | C[C@@H]1O[C@@H](O[C@H]2C[C@@H](O)[C@]3(CO)[C@H]4[C@H](O)C[C@]5(C)[C@@H](C6COC(=O)C6)CC[C@]5(O)[C@@H]4CC[C@]3(O)C2)[C@H](O)[C@H](O)[C@H]1O (stereo not given in full) | active: 1.46 µM
18 | O=C1N(c2ccccc2)C(c2cccnc2)N2CCCN12 (stereo not given) | inconclusive: 18.3 µM [activator, partial curve, poor fit]
19 | Nc1c2c(nc3ccccc13)CCCC2=O | inconclusive: 6.51 µM [activator, full curve, poor fit]
20 | Cc1ccc(NC(=O)CN2C(=O)CN=C(c3ccccc3)c3cc(Cl)ccc32)cc1 | active: 7.31 µM
21 | CN1C2CCC1/C(=C/c1ccccn1)C(=O)/C2=C\c1ccccn1 | active: 1.84 µM
22 | COC(=O)C1=C(c2ccc(OC(F)(F)F)cc2)C[C@@H]2CC[C@H]1N2C(=O)N1CCCC1 | inconclusive: 23.1 µM [activator, single point]

Filtered by structure, the compounds so far with a Cl atom
Row | Compound | Potency
3 | CN(C)P(=O)(C(Cl)=C(N1CCCCC1)N1CCCCC1)N(C)C | inconclusive: 5.17 µM [activator, partial curve]
20 | Cc1ccc(NC(=O)CN2C(=O)CN=C(c3ccccc3)c3cc(Cl)ccc32)cc1 | active: 7.31 µM

The listing continues.

Row | Compound | Potency
23 | S=c1nc(-c2ccccc2)n(-c2ccccc2)[nH]1 | inconclusive: 23.1 µM [activator, single point]
24 | CN1CCN(c2cc(N3CCCC3)c([N+](=O)[O-])cc2F)CC1 | inconclusive: 1.84 µM [inhibitor, partial curve]
25 | CCN(CC)c1ccc(/C=N/c2sc3c(c2C#N)C2CCN3CC2)c(O)c1 | inconclusive: 32.6 µM [inhibitor, single point]
26 | Cn1cccc1/C=C1/C(=O)NC(=O)N(C(C)(C)C)C1=O | inconclusive: 16.4 µM [activator, single point]
27 | O=c1[nH]c(=O)n(-c2cccc(Cl)c2)c(O)c1C=NCCCN1CCOCC1 | inconclusive: 4.61 µM [activator, partial curve, poor fit]
28 | CCOC(=O)c1ccc(NC(=O)c2c(O)[nH]c(=O)[nH]c2=O)cc1 | inactive
29 | Cc1cc(=O)oc2cc(OCC(=O)N3CCN(Cc4ccc5c(c4)OCO5)CC3)ccc12 | active: 6.51 µM
30 | CCCCNc1ccncc1S(=O)(=O)NC(=O)NC(C)C | inactive
31 | CCOc1cc2c(cc1OCC)-n1cccc1C(c1ccc(OC(F)F)cc1)NC2 (stereo not given) | inconclusive: 20.6 µM [inhibitor, single point]
32 | Cc1ccc(NC(=O)c2snnc2C)cc1Cl | inconclusive: 23.1 µM [activator, partial curve, poor fit]
33 | Nc1ccc(C2(c3ccc(N)cc3)c3ccccc3-c3ccccc32)cc1 | inconclusive: 29.1 µM [inhibitor, single point]
34 | Cc1cc(NC(=O)CCl)no1 | inconclusive: 20.6 µM [inhibitor, single point]
35 | CC(C)CCOC(=O)c1c(N)n(CC2CCCO2)c2nc3ccccc3nc12 (stereo not given) | inconclusive: 13 µM [inhibitor, partial curve, poor fit]
36 | CCc1ccccc1N1C(=O)/C(=C/c2ccc(N3CCN(C)CC3)o2)C(=O)NC1=S | inactive
37 | COc1ccccc1CCNC1CCCCCC1 | inactive
38 | CCCOC(=O)c1c(N)n(Cc2cccs2)c2nc3ccccc3nc12 | active: 20.6 µM
39 | CC1N(C)c2cc(NC(=O)c3ccco3)c(P(=O)(Nc3ccc([N+](=O)[O-])cc3)N3CCOCC3)cc2C1(C)C (stereo not given) | active: 18.3 µM
40 | CCOC(=O)c1ccc(NC(=O)c2nc[nH]c2C(=O)NCCNC(=O)c2[nH]cnc2C(=O)Nc2ccc(C(=O)OCC)cc2)cc1 | active: 0.517 µM
41 | COc1ccc(CN2CCCC(C(=O)c3ccccc3SC)C2)cc1O (stereo not given) | inactive
42 | COc1ccc(N2C(=O)/C(=C/c3ccc(C)o3)C(=O)NC2=S)c(OC)c1 | inconclusive: 31.6 µM [activator, single point]
43 | C=CCn1c(O)c(C(C)=Nc2ccc(NC(C)=O)cc2)c(=O)[nH]c1=O | inconclusive: 29.1 µM [activator, single point]
44 | O=C(Cn1ncc2ccsc2c1=O)N1CCC2(CC1)OCCO2 | inconclusive: 7.31 µM [activator, partial curve, poor fit]

Row | Compound | Potency
45 | CCOC(=O)c1cccc([P+](=O)O)c1 | inactive
46 | COc1ccc(-c2cc(=O)oc3c(C)c(OC(C)C(=O)N4C[C@H]5C[C@@H](C4)c4cccc(=O)n4C5)ccc23)cc1 (stereo not given in full) | inconclusive: 25.9 µM [inhibitor, single point]
47 | COc1ccccc1N(CC(=O)NC1CCCC1)C(=O)c1cnn(C(C)C)c1 | inconclusive: 20.6 µM [activator, single point]
48 | Cc1cc(=O)oc2cc(OCC(=O)N3CCN(C(C)c4ccccc4)CC3)c(Cl)cc12 (stereo not given) | active: 20.6 µM
49 | COc1cc(C(=O)NC2CC3CCCC(C2)N3CC(=O)Nc2ccccc2)cc(OC)c1OC (stereo not given) | inconclusive: 7.31 µM [inhibitor, partial curve]
50 | O=C(Nc1ccccc1)c1c(O)c2c(n(Cc3ccco3)c1=O)CCCC2 | inconclusive: 29.1 µM [activator, single point]
51 | CC(=O)OC(C)(C)/C=C/C(=O)[C@](C)(O)[C@H]1[C@H](O)C[C@@]2(C)[C@@H]3CC=C4[C@H](C[C@H](O)C(=O)C4(C)C)[C@]3(C)C(=O)C[C@]12C | active: 5.17 µM
52 | O=C1NC(=O)N(c2ccccc2)C(=O)/C1=C\c1ccccc1[N+](=O)[O-] | inconclusive: 25.9 µM [activator, single point]
53 | COCCCNC(=S)NCCCNc1nc2cc(C)cc(C)c2cc1C#N | inconclusive: 18.3 µM [inhibitor, single point]
54 | COC(=O)C1=C(c2ccccc2OCc2ccccc2)C[C@@H]2CC[C@H]1N2C(=O)NCc1cccc(C(F)(F)F)c1 | inconclusive: 29.1 µM [inhibitor, single point]
55 | C=C1C(=O)O[C@@H]2C[C@@H](C)[C@@H]3C4OC4C(=O)[C@@]3(C)[C@@H](O)[C@H]12 (stereo not given in full) | inconclusive: 29.1 µM [inhibitor, single point]
56 | O=C1NC(=O)C2=Cc3ccc(O)cc3OC2(O)N1 (stereo not given) | inactive
57 | O=C1N(c2ccc(Cl)cc2)C(c2cccnc2)N2CCCN12 (stereo not given) | inconclusive: 14.6 µM [activator, partial curve, poor fit]
58 | O=C(Nc1cccc(Cl)c1)OC1CN2CCC1CC2 (stereo not given) | inconclusive: 29.1 µM [inhibitor, single point]
59 | COC(=O)c1c(NC(=O)C2CC=CCC2C(=O)O)sc2c1CCCCC2 (stereo not given) | inconclusive: 8.2 µM [activator, partial curve]
60 | COc1ccc(N2C(=O)/C(=C/c3cccs3)C(=O)NC2=S)cc1 | inactive
61 | COc1ccc(-c2nn(CCC#N)cc2C(=O)Nc2cccc([N+](=O)[O-])c2)cc1OC | inconclusive: 29.1 µM [inhibitor, single point]
62 | CCc1ccc(N2C(=O)NC(=O)/C(=C\C=C\c3ccco3)C2=O)cc1 | inconclusive: 29.1 µM [inhibitor, single point]
63 | COC(=O)C1=C(c2ccc(C(C)=O)cc2)C[C@@H]2CC[C@H]1N2C(=O)NC1Cc2ccccc2C1 | inactive
64 | COc1ccc(Oc2c(C)oc3cc(OC(=O)N4CCOCC4)ccc3c2=O)cc1 | inconclusive: 29.1 µM [inhibitor, single point]
65 | COc1ccc(C/C(=N\OC(C)=O)c2ccc(OC)cc2)cc1 | inconclusive: 23.1 µM [activator, single point]

Pulled by compound from above, 2 records:
Row | Compound | Potency
56 | O=C1NC(=O)C2=Cc3ccc(O)cc3OC2(O)N1 (stereo not given) | inactive
65 | COc1ccc(C/C(=N\OC(C)=O)c2ccc(OC)cc2)cc1 | inconclusive: 23.1 µM [activator, single point]
